Test results taken from PubChem BioAssay AID445 (National Center for Advancing Translational Sciences (NCATS), 2006).
The list shows a part of the results. The main result of the screen is listed elsewhere. These columns were measured beside it and carry no call. Most of these compounds were active or inconclusive in the main read-out, so they are no random draw. The note in brackets gives the kind of curve behind each potency; many fits are weak.

Test: IkB Signaling
Conditions: ABC-DLBCL IkBa-CBG/CBR dual luciferase ratio (green luciferase fused to IkBa over red control in OCI-Ly3 lymphoma cells), 4 h; measured here: control luc red channel unless noted
How it was run: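 Luminescence ratio of IκBα-fused green versus native red beetle luciferase in OCI-Ly3 cells, 4 h post-doxycycline with compound; red signal alone, scaled from basal (0%) to zero light (-100%), flagged nonspecific or cytotoxic effects.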
With `Cc1ccc(NC(=O)c2ccc(NC(=O)N3CCSc4ncccc43)cc2)cc1Cl` the AC50 was 7.94 µM [falling, full curve]. For `C=CCn1c(SCC(=O)c2cc(C)n(Cc3cccs3)c2C)nnc1-c1ccncc1`, the AC50 was 25.1 µM [falling, partial curve]. In the case of `CCCN(C(=O)Cn1ncc2c(=O)oc3ccccc3c21)c1cccc(C)c1`, the AC50 is reported as 12.6 µM [falling, single point]. With `CCCCOC(=O)c1ccc(NS(=O)(=O)c2c(C)nc3scc(C)n3c2=O)cc1` the AC50 was 20 µM [falling, partial curve]. For `Cc1ccc(CNC(=O)Cn2ncc3c(C)n(Cc4ccc(Cl)cc4)c(C)c3c2=O)cc1`, the AC50 was 15.8 µM [falling, single point]. In the case of `COc1ccccc1Nc1cc(C)nc2nc(-c3ccccc3)nn12`, the AC50 is reported as 25.1 µM [falling, single point]. With `Cc1ccc(NC(=O)c2c(N3CCCC3=O)c3cc(C)ccc3n2C)c(C)c1` the AC50 was 25.1 µM [falling, single point]. With `O=C(CCSCCc1ccccn1)Nc1nccs1` the AC50 was 10 µM [falling, partial curve]. With `CCOc1ccc(N(CC)C(=O)c2cc3c(s2)-c2ccccc2OC3)cc1` the AC50 was 39.8 µM [falling, single point]. In the case of `COc1cccc(N2CCN(C(=O)c3nn(C)c4c3CSc3ccc(C)cc3-4)CC2)c1`, the AC50 is reported as 20 µM [falling, single point]. With `CCC(=O)N1CCc2cc(CNC(=O)c3ccc(F)cc3)ccc21` the AC50 was 7.94 µM [rising, partial curve]. In the case of `Cc1ccc(-c2nc3sccn3c2Nc2ccc(C)c(C)c2)cc1`, the AC50 is reported as 39.8 µM [falling, single point]. In the case of `CCC(C(=O)Nc1cc(F)ccc1F)n1nc(C)c2c(C)n(-c3ccc(C)cc3)nc2c1=O` (centres undefined), the AC50 is reported as 7.94 µM [falling, full curve]. For `CCc1c(O)nc(SCC(=O)Nc2ccc(C)cc2)n(C2CCCCC2)c1=O`, the AC50 was 10 µM [falling, partial curve]. In the case of `CCc1ccccc1NC(=O)c1noc2c1CC(C(C)(C)C)CC2` (centres undefined), the AC50 is reported as 39.8 µM [falling, single point]. For `Cc1cccc(NC(=O)C(=O)NCCc2csc(-c3ccc(F)cc3)n2)c1C`, the AC50 was 3.98 µM [falling, full curve]. With `Cc1cc(N2CCCCC2)nc2ccc(NC(=O)CCC(=O)N3CCN(c4ccccc4)CC3)cc12` the AC50 was 25.1 µM [falling, partial curve]. For `O=C(CSCc1ccc(F)cc1)N1CCc2c([nH]c3ccccc23)C1c1ccc(Cl)cc1` (centres undefined), the AC50 was 25.1 µM [falling, single point]. In the case of `COc1ccc(NC(=O)CN2C(=O)c3cccnc3Sc3ccccc32)cc1OC`, the AC50 is reported as 15.8 µM [falling, partial curve, poor fit]. With `Cc1cccc(N2CCN(C(=O)c3ccc(Nc4nc5ccccc5n5nnnc45)cc3)CC2)c1C` the AC50 was 2 µM [falling, full curve]. For `CC1=C(C(=O)Nc2cc(Cl)ccc2C)C(c2cccs2)n2ncnc2N1` (centres undefined), the AC50 was 1.26 µM [falling, full curve]. For `CC1CCN(C(=S)c2ccccc2O)CC1`, the AC50 was 31.6 µM [falling, single point]. In the case of `CCn1c(COc2ccccc2C)nnc1SCC(=O)CC(=O)Nc1ccccc1OC`, the AC50 is reported as 15.8 µM [falling, partial curve]. With `Cn1c(=O)cc(SCC(=O)N2CCN(c3ccccc3F)CC2)c2ccccc21` the AC50 was 25.1 µM [falling, single point]. With `CCOc1ccc(NC(=O)CC2C(=O)N(c3cccc(C)c3)C(=O)N2Cc2cccs2)cc1` (centres undefined) the AC50 was 31.6 µM [falling, single point]. For `CCOc1ccc(CN(CCc2ccc3c(c2)OCO3)Cc2cc(OC)c(OC)cc2OC)cc1`, the AC50 was 12.6 µM [falling, partial curve]. In the case of `COc1cc(NC(=O)CCc2c(C)nn(-c3ccc(N4CCCCC4)nn3)c2C)cc(OC)c1OC`, the AC50 is reported as 15.8 µM [falling, partial curve]. With `COc1ccc(NCC(=O)Nc2ccc(Cl)cc2C)c(OC)c1` the AC50 was 15.8 µM [falling, partial curve]. In the case of `NC(=O)C1(N2CCCCC2)CCN(CC(=O)Nc2ccc(Oc3ccccc3)cc2)CC1`, the AC50 is reported as 15.8 µM [falling, partial curve]. For `CCCN(Cc1cc2cc(C)ccc2[nH]c1=O)C(=O)c1cccc(OC)c1`, the AC50 was 15.8 µM [falling, partial curve]. In the case of `COC(=O)c1cc2sc(Cl)cc2n1CC(=O)Nc1cc(C)cc(C)c1`, the AC50 is reported as 1 µM [falling, full curve]. In the case of `COC(=O)c1c(N)n(-c2ccc(OC)c(OC)c2)c2nc3ccccc3nc12`, the AC50 is reported as 20 µM [falling, single point]. With `CS(=O)(=O)N(CCc1ccccc1)CC(=O)Nc1ccc2c(c1)OCO2` the AC50 was 39.8 µM [falling, single point]. For `O=C(CSc1nc2ccccc2o1)NCc1ccc2c(c1)OCO2`, the AC50 was 25.1 µM [falling, single point]. For `CCOc1cccc2sc(N(Cc3cccnc3)C(=O)c3ccc(C#N)cc3)nc12`, the AC50 was 20 µM [falling, partial curve]. In the case of `CCCOc1cccc(C(=O)Nc2cc(NC(=O)c3ccco3)ccc2OC)c1`, the AC50 is reported as 20 µM [falling, partial curve]. For `Cc1c(CC(=O)NCc2ccc(F)cc2)c(=O)oc2cc(O)c(Cl)cc12`, the AC50 was 25.1 µM [falling, single point]. For `O=C(NCc1ccccc1Cl)c1ccc2oc(=O)n(Cc3ccccc3)c2c1`, the AC50 was 20 µM [falling, partial curve]. For `Cc1cc(C)n(-c2nc3ccccc3nc2N2CCN(c3cccc(C(F)(F)F)c3)CC2)n1`, the AC50 was 31.6 µM [falling, partial curve]. For `Cc1cccc(-n2nc(C)c(C(=O)Nc3cc(C)ccc3C)c2-n2cccc2)c1`, the AC50 was 12.6 µM [falling, partial curve]. In the case of `CC(C)(C)OC(=O)N1CCC[C@H]1c1nnc(SCc2ccc(Cl)cc2Cl)o1`, the AC50 is reported as 15.8 µM [falling, partial curve]. For `COc1ccccc1N1CCN(C(=O)c2ccc(S(=O)(=O)N3CCCCCC3)cc2)CC1`, the AC50 was 10 µM [falling, partial curve]. In the case of `COc1ccccc1C(=O)Oc1ccc(C(c2c(C)[nH][nH]c2=O)c2c(C)[nH][nH]c2=O)cc1`, the AC50 is reported as 15.8 µM [falling, partial curve]. In the case of `Cc1csc2nc(COC(=O)c3ccccc3NC(=O)c3ccc(C(C)(C)C)cc3)cc(=O)n12`, the AC50 is reported as 0.1 µM [rising, full curve, poor fit]. With `COc1ccc(CC(=O)Nc2ccc(-c3nc4ccccc4s3)c(C)c2)cc1OC` the AC50 was 0.316 µM [rising, full curve]. With `O=C(CCCn1c(=O)c2cccn2c2ccccc21)NCCc1ccc(Cl)cc1` the AC50 was 20 µM [falling, single point]. For `Cc1cnc(NC(=O)CSc2nnc(-c3ccc(Cl)cc3Cl)n2N)s1`, the AC50 was 15.8 µM [falling, partial curve]. With `CSc1nn(Cc2ccc(C)cc2)c(N)c1S(=O)(=O)c1ccccc1` the AC50 was 31.6 µM [falling, partial curve]. For `COc1ccc(OC)c(NC(=O)Cn2c(=O)cc(-c3ccccc3)c3c(C)nn(C)c32)c1`, the AC50 was 20 µM [falling, partial curve]. For `O=C(CCCCCn1c(=O)[nH]c2ccccc2c1=O)N1CCN(Cc2ccc3c(c2)OCO3)CC1`, the AC50 was 25.1 µM [falling, partial curve]. In the case of `Cc1cccc(N2CCN(C(=O)CS(=O)(=O)Cc3nc(-c4ccccc4C)oc3C)CC2C)c1` (centres undefined), the AC50 is reported as 25.1 µM [falling, partial curve]. In the case of `CCOc1ccc(N(Cc2ccccc2)C(=O)c2nc(S(C)(=O)=O)ncc2Cl)cc1`, the AC50 is reported as 3.16 µM [falling, full curve]. With `CC(=O)c1c(C)oc2c1cc(NS(=O)(=O)c1ccc(Cl)c(C)c1)c1ccccc12` the AC50 was 12.6 µM [falling, partial curve]. For `O=S(=O)(c1cccs1)N1CCN(Cc2nc3ccccc3s2)CC1`, the AC50 was 15.8 µM [falling, partial curve]. With `Cc1c(Cl)cccc1NC(=O)c1cc(-c2ccc(O)cc2)on1` the AC50 was 5.01 µM [falling, partial curve]. For `O=C(Nc1ccc(Cl)cc1)C(NS(=O)(=O)c1cccs1)c1ccccc1` (centres undefined), the AC50 was 31.6 µM [falling, single point]. For `Cc1nc(-c2ccc(C)c(N3CCN(C(=O)Nc4cccc(Cl)c4C)CC3)c2)no1`, the AC50 was 25.1 µM [falling, partial curve]. In the case of `Cc1ccc(-n2c(Cc3ccccc3)nnc2SCc2nc(-c3cccs3)no2)cc1C`, the AC50 is reported as 25.1 µM [falling, partial curve]. In the case of `COc1ccc(CNC(=O)c2ccc3nc(-c4ccc(F)cc4)c(-c4ccc(F)cc4)nc3c2)cc1`, the AC50 is reported as 15.8 µM [falling, partial curve, poor fit]. With `Cc1ccc(NC(=O)c2ccccc2Br)c(C(=O)c2ccccc2)c1` the AC50 was 39.8 µM [falling, single point]. In the case of `CC1CCN(c2nc3ccc(C(=O)NCc4ccccc4)cc3s2)CC1`, the AC50 is reported as 3.98 µM [falling, partial curve]. For `COc1ccc(-c2cc(=O)c3c(O)cc(O)cc3o2)cc1`, the AC50 was 6.31 µM [falling, partial curve]. With `COc1ccc(CC(=O)Nc2nc3c(s2)CC(C)CC3)cc1` (centres undefined) the AC50 was 25.1 µM [falling, partial curve]. For `CCN(C(=O)COc1cc(=O)n(CC)c2ccccc12)c1cc(Cl)ccc1OC`, the AC50 was 12.6 µM [falling, partial curve].
